The list shows a part of the results.
Key:
Experiment in all cases: glycan array binding signal (z-score within array); higher = stronger binding
Conditions in all cases: glycan notation: IUPAC condensed, linker removed
[1] = target: Neu5Ac(a2-6)GlcNAc(b1-4)GlcNAc
Summary of the method: (§1)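 Glycan array data came from 3228 arrays in the Consortium for Functional Glycomics database, and only arrays with an available protein sequence were kept. Glycan names were put into IUPAC-condensed notation, and columns mapping to the same glycan were averaged. The binding signal is a within-array Z-score, averaged across arrays of one protein sequence run at different concentrations or buffers and across linkers. A negative Z-score can be read as non-binding.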

[2] = target: Neu5Ac(a2-6)GlcNAc(b1-4)GlcNAc(b1-4)GlcNAc
Summary of the method: as §1

Neu5Ac(a2-8)Neu5Ac = target: Neu5Ac(a2-8)Neu5Ac
Summary of the method: as §1

[3] = target: Neu5Ac(a2-8)Neu5Ac(a2-3)Gal(b1-3)GalNAc(b1-4)[Neu5Ac(a2-3)]Gal(b1-4)Glc
Summary of the method: as §1

[4] = target: Neu5Ac(a2-8)Neu5Ac(a2-3)Gal(b1-3)GalNAc(b1-4)[Neu5Ac(a2-8)Neu5Ac(a2-3)]Gal(b1-4)Glc
Summary of the method: as §1

[5] = target: Neu5Ac(a2-8)Neu5Ac(a2-3)Gal(b1-4)Glc
Summary of the method: as §1

[6] = target: Neu5Ac(a2-8)Neu5Ac(a2-3)Gal(b1-4)GlcNAc
Summary of the method: as §1

[7] = target: Neu5Ac(a2-8)Neu5Ac(a2-3)[Gal(b1-3)GalNAc(b1-4)]Gal(b1-4)Glc
Summary of the method: as §1

[8] = target: Neu5Ac(a2-8)Neu5Ac(a2-3)[GalNAc(b1-4)]Gal(b1-4)Glc
Summary of the method: as §1

[9] = target: Neu5Ac(a2-8)Neu5Ac(a2-8)Neu5Ac
Summary of the method: as §1

[10] = target: Neu5Ac(a2-8)Neu5Ac(a2-8)Neu5Ac(a2-3)Gal(b1-4)Glc
Summary of the method: as §1

[11] = target: Neu5Ac(a2-8)Neu5Ac(a2-8)Neu5Ac(a2-3)[Gal(b1-3)GalNAc(b1-4)]Gal(b1-4)Glc
Summary of the method: as §1

[12] = target: Neu5Ac(a2-8)Neu5Ac(a2-8)Neu5Ac(a2-3)[GalNAc(b1-4)]Gal(b1-4)Glc
Summary of the method: as §1

[13] = target: Neu5Ac(a2-8)Neu5Ac(a2-8)Neu5Ac(a2-8)Neu5Ac(a2-3)[GalNAc(b1-4)]Gal(b1-4)Glc
Summary of the method: as §1

[14] = target: Neu5Ac(a2-8)Neu5Gc(a2-3)Gal(b1-4)GlcNAc
Summary of the method: as §1

[15] = target: Neu5Ac(b2-6)Gal(b1-4)GlcNAc
Summary of the method: as §1

Neu5Ac(b2-6)GalNAc = target: Neu5Ac(b2-6)GalNAc
Summary of the method: as §1

[16] = target: Neu5Ac9Ac(a2-3)Gal(b1-3)GlcNAc
Summary of the method: as §1

[17] = target: Neu5Ac9Ac(a2-3)Gal(b1-4)GlcNAc
Summary of the method: as §1

[18] = target: Neu5Ac9Ac(a2-6)Gal(b1-4)GlcNAc
Summary of the method: as §1

[19] = target: Neu5Gc(a2-3)Gal(b1-3)GlcNAc
Summary of the method: as §1

[20] = target: Neu5Gc(a2-3)Gal(b1-3)[Fuc(a1-4)]GlcNAc
Summary of the method: as §1

Neu5Gc(a2-3)Gal(b1-4)Glc = target: Neu5Gc(a2-3)Gal(b1-4)Glc
Summary of the method: as §1

[21] = target: Neu5Gc(a2-3)Gal(b1-4)GlcNAc
Summary of the method: as §1

[22] = target: Neu5Gc(a2-3)Gal(b1-4)GlcNAc(b1-3)Gal(b1-4)GlcNAc(b1-2)Man(a1-3)[Neu5Gc(a2-3)Gal(b1-4)GlcNAc(b1-3)Gal(b1-4)GlcNAc(b1-2)Man(a1-6)]Man(b1-4)GlcNAc(b1-4)GlcNAc
Summary of the method: as §1

[23] = target: Neu5Gc(a2-3)Gal(b1-4)[Fuc(a1-3)]GlcNAc
Summary of the method: as §1

[24] = target: Neu5Gc(a2-6)Gal(b1-4)GlcNAc
Summary of the method: as §1

Neu5Gc(a2-6)GalNAc = target: Neu5Gc(a2-6)GalNAc
Summary of the method: as §1

[25] = target: Neu5Gc(a2-8)Neu5Ac(a2-3)Gal(b1-4)GlcNAc
Summary of the method: as §1

[26] = target: Neu5Gc(a2-8)Neu5Gc(a2-3)Gal(b1-4)GlcNAc
Summary of the method: as §1

[27] = target: Neu5Gc(a2-8)Neu5Gc(a2-3)Gal(b1-4)GlcNAc(b1-3)Gal(b1-4)GlcNAc
Summary of the method: as §1

[28] = target: Neu5Gc(a2-8)Neu5Gc(a2-6)Gal(b1-4)GlcNAc
Summary of the method: as §1

[29] = target: Neu5Gc(b2-6)Gal(b1-4)GlcNAc
Summary of the method: as §1

B1: HA-00510 (Pseudomonas aeruginosa), Q02V39_PSEAB (protein)
chain: GVPIVNIATPNGAGLSNNHFRDYNVGANGLILNNATGKTQGTQLGGIILGNPNLKGQAAQVILNQVTGGNRSTLAGYTEVAGQSARVIVANPHGITCQGCGFINTPRATLTTGKPIMDGQRLERFQVDGGDIVVEGAELNVGNLEQFDLITRSAKLNAKLYAKNLNIVTGRNDVQADSLQATPRAADGSEKPQLAIDSSALGGMYAGAIRLVGTEQGVGVKLAGDMAASGGDIRIDASGKLSLAQASSQGDLKIAAQAVELNGKTYAGGSAEIRSAEELVNRQS
glycan array binding signal (z-score) [1]: -0.247
glycan array binding signal (z-score) [2]: -0.133
glycan array binding signal (z-score) (Neu5Ac(a2-8)Neu5Ac): 0.611
glycan array binding signal (z-score) [3]: -0.026
glycan array binding signal (z-score) [4]: 0.659
glycan array binding signal (z-score) [5]: -0.106
glycan array binding signal (z-score) [6]: -0.473
glycan array binding signal (z-score) [7]: 0.223
glycan array binding signal (z-score) [8]: -0.094
glycan array binding signal (z-score) [9]: 0.563
glycan array binding signal (z-score) [10]: 0.254
glycan array binding signal (z-score) [11]: 0.198
glycan array binding signal (z-score) [12]: -0.401
glycan array binding signal (z-score) [13]: -0.164
glycan array binding signal (z-score) [14]: -1.15
glycan array binding signal (z-score) [15]: -0.145
glycan array binding signal (z-score) (Neu5Ac(b2-6)GalNAc): -0.254
glycan array binding signal (z-score) [16]: 0.99
glycan array binding signal (z-score) [17]: 0.419
glycan array binding signal (z-score) [18]: -0.697
glycan array binding signal (z-score) [19]: 0.051
glycan array binding signal (z-score) [20]: -0.054
glycan array binding signal (z-score) (Neu5Gc(a2-3)Gal(b1-4)Glc): 0.045
glycan array binding signal (z-score) [21]: -0.181
glycan array binding signal (z-score) [22]: -0.352
glycan array binding signal (z-score) [23]: -0.624
glycan array binding signal (z-score) [24]: 0.471
glycan array binding signal (z-score) (Neu5Gc(a2-6)GalNAc): -0.059
glycan array binding signal (z-score) [25]: -0.4
glycan array binding signal (z-score) [26]: -0.585
glycan array binding signal (z-score) [27]: -1.26
glycan array binding signal (z-score) [28]: -0.771
glycan array binding signal (z-score) [29]: -0.019

From the supplement of paper PMC8728848
